Test results published in paper PMC12215978, “CryoEM structure of the SLFN14 endoribonuclease reveals insight into RNA binding and cleavage” (Nature Communications, 2025).
Results are given in words; binding and its absence hold for the method and conditions named. Some binding calls cover weakened binding; strength is not graded here. Sequences can lack the tags named with a protein.

Biological target: full-length recombinant human SLFN14 (residues 1–912), C-terminally Flag-tagged (human) (UniProt P0C7P3)
Assay: cryo-EM structure; SLFN14 0.6 mg/mL with and without brewer's yeast tRNA (1:1 molar ratio) in 20 mM Tris pH 7.4, 150 mM NaCl, 1 mM MgCl2, 1 mM TCEP; three datasets merged; RNA bound in the cleft; both purified

binding: binds
B1: full-length recombinant human SLFN14 (residues 1–912), C-terminally Flag-tagged (enzyme, UniProt P0C7P3 1-912, looked up)
chain: MESLKTDTEMPYPEVIVDVGRVIFGEENRKKMTNSCLKRSENSRIIRAICALLNSGGGVIKAEIDDKTYSYQCHGLGQDLETSFQKLLPSGSQKYLDYMQQGHNLLIFVKSWSPDVFSLPLRICSLRSNLYRRDVTSAINLSASSALELLREKGFRAQRGRPRVKKLHPQQVLNRCIQEEEDMRILASEFFKKDKLMYKEKLNFTESTHVEFKRFTTKKVIPRIKEMLPHYVSAFANTQGGYVLIGVDDKSKEVVGCKWEKVNPDLLKKEIENCIEKLPTFHFCCEKPKVNFTTKILNVYQKDVLDGYVCVIQVEPFCCVVFAEAPDSWIMKDNSVTRLTAEQWVVMMLDTQSAPPSLVTDYNSCLISSASSARKSPGYPIKVHKFKEALQRHLFPVTQEEVQFKPESLCKKLFSDHKELEGLMKTLIHPCSQGIVIFSRSWAGDVGFRKEQNVLCDALLIAVNSPVVLYTILIDPNWPGGLEYARNTAHQLKQKLQTVGGYTGKVCIIPRLIHLSSTQSRPGEIPLRYPRSYRLADEEEMEDLLQALVVVSLSSRSLLSDQMGCEFFNLLIMEQSQLLSESLQKTRELFIYCFPGVRKTALAIKIMEKIKDLFHCKPKEILYVCESDSLKDFVTQQTTCQAVTRKTFMQGEFLKIKHIVMDETENFCSKYGNWYMKAKNITHPKAKGTGSENLHHGILWLFLDPFQIHHADVNGLPPPSAQFPRKTITSGIHCALEIAKVMKEEMKRIKENPPSNMSPDTLALFSETAYEEATCAQALPGVCETKTNLTTEQIANYVARKCHSLFQCGYLPKDIAILCRRGEDRGRYRLALLKAMELIETHRPSEVVFSPATGVWGSHIVLDSIQQFSGLERTVVFGLSPECDQSEEFHKLCFASRAIKHLYLLYEKRAAY
notes: human SLFN14, full length, residues 1-912; The sample keeps co-purified cellular nucleic acid, and the structure has RNA in the cleft; also called SLFN14 wild-type (WT); Schlafen 14; not shown: Flag, C-terminal, kept
